In the supplement of paper PMC9262897, “Low-cost anti-mycobacterial drug discovery using engineered E. coli” (Nature Communications, 2022):
Where a name gives a salt, the structure may show the parent alone. ± gives the standard deviation of the averaged measurements. The lowest values were mostly taken out for another list; the other results follow.

The compounds below were run on E. coli TESEC Mtb DapB (assay: growth (OD600 after 10 h); higher = more growth (less inhibition)). Conditions: arabinose induction (level): High; compound 0.1 mM; raw OD600 reference: median of DMSO wells […], cell-free background 0.041.
Experimental: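 TESEC E. coli strains in which the native enzyme is deleted and replaced by arabinose-inducible Mtb Asd, DapB, CysH or TrpD, each grown in its selective medium. Strains were screened against the Prestwick library at 0.1 mM and 1% DMSO in 384-well format at low and high arabinose induction. Growth is read as OD600 after 10 h in triplicate.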

Structure (SMILES) | growth
CN1[C@@H]2CC[C@H]1C[C@@H](OC(=O)C(O)c1ccccc1)C2 (mixture of isomers) [Homatropine hydrobromide (R,S)] | 0.216 ± 0.012

Same assay, conditions: arabinose induction (level): Low; compound 0.1 mM; raw OD600 reference: median of DMSO wells 0.227, cell-free background 0.041

Structure (SMILES) | growth
CN1[C@@H]2CC[C@H]1C[C@@H](OC(=O)C(O)c1ccccc1)C2 (mixture of isomers) [Homatropine hydrobromide (R,S)] | 0.266 ± 0.047
